From the M2OR odorant receptor database
The list shows a part of the results, in another mix than the full data. Calls are pooled over several reports, among them a noisy single-well screen. The list shows a part of the results.

Chains of the proteins cited; added tags and fusions are not shown. A change or cut given only in a name is not applied to a line headed by its entry. Chains listed by the source or under a name are the forms on record and can include a tag or linker.
UniProt Q96R67: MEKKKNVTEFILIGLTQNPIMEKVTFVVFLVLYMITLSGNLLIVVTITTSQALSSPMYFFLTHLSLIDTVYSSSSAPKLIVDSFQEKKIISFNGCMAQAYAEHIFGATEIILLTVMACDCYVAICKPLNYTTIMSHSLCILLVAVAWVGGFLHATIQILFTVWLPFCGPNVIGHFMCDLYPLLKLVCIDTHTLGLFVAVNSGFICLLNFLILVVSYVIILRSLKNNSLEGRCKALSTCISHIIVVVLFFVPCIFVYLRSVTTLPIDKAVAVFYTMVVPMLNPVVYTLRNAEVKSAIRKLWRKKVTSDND
UniProt Q8NGM1: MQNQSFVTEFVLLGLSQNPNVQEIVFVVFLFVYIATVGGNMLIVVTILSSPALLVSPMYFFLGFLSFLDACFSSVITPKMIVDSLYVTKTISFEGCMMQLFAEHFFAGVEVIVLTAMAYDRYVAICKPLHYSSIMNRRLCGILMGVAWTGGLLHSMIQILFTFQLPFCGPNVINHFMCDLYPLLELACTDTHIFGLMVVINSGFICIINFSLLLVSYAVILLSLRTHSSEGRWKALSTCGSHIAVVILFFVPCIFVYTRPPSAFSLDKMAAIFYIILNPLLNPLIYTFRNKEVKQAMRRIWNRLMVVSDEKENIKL
UniProt Q8NGL9: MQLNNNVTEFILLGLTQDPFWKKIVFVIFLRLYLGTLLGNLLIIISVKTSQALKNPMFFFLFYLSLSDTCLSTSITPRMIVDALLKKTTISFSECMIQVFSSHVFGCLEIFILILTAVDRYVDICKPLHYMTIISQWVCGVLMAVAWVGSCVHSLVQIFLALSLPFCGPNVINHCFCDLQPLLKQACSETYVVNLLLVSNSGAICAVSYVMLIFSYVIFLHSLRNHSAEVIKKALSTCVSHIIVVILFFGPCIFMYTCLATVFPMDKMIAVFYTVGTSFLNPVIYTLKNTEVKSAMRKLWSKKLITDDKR
UniProt Q8NH37: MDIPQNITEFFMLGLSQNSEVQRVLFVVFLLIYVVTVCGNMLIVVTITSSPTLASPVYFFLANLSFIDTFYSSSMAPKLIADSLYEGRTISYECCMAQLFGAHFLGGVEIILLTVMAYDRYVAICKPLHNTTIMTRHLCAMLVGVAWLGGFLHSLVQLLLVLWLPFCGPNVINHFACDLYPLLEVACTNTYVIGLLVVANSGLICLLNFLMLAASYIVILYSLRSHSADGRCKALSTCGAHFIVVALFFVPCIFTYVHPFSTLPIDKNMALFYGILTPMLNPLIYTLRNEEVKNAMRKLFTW
UniProt A6NHA9: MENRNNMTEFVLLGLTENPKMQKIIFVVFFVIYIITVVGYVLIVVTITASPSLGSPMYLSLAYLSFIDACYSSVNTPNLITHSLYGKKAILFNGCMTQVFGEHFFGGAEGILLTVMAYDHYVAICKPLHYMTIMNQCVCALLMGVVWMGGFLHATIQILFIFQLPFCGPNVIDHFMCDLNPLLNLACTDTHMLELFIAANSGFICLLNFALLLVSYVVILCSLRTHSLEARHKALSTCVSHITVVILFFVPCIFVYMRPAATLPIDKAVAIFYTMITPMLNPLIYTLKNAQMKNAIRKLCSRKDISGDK
UniProt Q8NGB2: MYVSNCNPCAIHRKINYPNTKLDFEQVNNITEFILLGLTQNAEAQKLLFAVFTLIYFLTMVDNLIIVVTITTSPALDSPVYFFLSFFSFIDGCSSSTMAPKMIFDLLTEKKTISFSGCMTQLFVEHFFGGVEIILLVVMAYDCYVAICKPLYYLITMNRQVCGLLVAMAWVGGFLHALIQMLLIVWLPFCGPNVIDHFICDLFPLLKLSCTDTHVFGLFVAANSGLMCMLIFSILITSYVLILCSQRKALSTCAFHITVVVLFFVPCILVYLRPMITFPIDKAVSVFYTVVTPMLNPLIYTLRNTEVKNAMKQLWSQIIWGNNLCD
UniProt Q8NH72: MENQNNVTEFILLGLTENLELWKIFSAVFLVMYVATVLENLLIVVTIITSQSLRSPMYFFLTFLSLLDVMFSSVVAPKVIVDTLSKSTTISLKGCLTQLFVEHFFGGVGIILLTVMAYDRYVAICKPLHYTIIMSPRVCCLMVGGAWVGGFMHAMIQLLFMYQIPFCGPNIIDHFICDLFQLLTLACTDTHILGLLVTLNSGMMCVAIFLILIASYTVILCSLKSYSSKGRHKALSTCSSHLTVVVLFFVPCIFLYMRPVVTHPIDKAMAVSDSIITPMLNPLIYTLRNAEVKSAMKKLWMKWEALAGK
OR4C5, as listed by the source: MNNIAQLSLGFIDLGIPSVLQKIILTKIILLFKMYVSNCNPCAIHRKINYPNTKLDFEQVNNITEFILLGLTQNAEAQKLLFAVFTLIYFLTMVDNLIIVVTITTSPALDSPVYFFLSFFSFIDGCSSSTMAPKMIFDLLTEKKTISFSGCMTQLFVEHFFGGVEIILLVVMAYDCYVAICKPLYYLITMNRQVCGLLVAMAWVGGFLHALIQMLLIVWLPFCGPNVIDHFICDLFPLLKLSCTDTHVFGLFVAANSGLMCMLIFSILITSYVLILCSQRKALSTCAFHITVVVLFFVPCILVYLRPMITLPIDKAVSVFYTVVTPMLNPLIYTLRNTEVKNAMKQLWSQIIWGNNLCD
OR4CC, as listed by the source: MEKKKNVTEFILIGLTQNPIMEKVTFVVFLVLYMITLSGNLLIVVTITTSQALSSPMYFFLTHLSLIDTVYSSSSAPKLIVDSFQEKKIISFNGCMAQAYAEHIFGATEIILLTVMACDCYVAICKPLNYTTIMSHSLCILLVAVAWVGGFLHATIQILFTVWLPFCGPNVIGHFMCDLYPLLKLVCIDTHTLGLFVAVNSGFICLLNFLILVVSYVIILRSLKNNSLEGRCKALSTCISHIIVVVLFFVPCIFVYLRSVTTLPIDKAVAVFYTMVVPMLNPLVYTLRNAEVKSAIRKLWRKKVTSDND
OR4C3, as listed by the source: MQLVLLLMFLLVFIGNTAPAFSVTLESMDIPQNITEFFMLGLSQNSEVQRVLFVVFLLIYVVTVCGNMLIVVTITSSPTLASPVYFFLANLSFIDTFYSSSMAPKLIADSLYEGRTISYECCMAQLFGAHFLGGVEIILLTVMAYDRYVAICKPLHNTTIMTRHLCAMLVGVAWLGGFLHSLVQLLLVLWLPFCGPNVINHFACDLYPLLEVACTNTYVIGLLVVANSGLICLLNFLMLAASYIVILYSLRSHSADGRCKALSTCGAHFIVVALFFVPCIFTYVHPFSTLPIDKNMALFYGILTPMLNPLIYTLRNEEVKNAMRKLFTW

What was measured:
Details in all cases: stereoisomer not certain
OR4C12 (Homo sapiens) = OR4C12 (Homo sapiens) (UniProt Q96R67)
Method in brief: (§1)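 Whether a receptor–molecule pair is responsive (active) rests on the original authors' judgment that its measured signal was statistically different from baseline. Pairs without that judgment are non-responsive (inactive). Sources used varied assay methods, commonly transient luciferase assays in mammalian cell lines.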

OR4C15 (Homo sapiens) = OR4C15 (Homo sapiens) (UniProt Q8NGM1)
Method in brief: as §1

OR4C16 (Homo sapiens) = OR4C16 (Homo sapiens) (UniProt Q8NGL9)
Method in brief: as §1

OR4C3 (Homo sapiens) = OR4C3 (Homo sapiens) (UniProt Q8NH37)
Method in brief: as §1

OR4C3 = system: OR4C3
Method in brief: as §1

OR4C46 (Homo sapiens) = OR4C46 (Homo sapiens) (UniProt A6NHA9)
Method in brief: as §1

OR4C5 (Homo sapiens) = OR4C5 (Homo sapiens) (UniProt Q8NGB2)
Method in brief: as §1

OR4C5 = system: OR4C5
Method in brief: as §1

OR4CC = system: OR4CC
Method in brief: as §1

OR4C6 (Homo sapiens) = OR4C6 (Homo sapiens) (UniProt Q8NH72)
Method in brief: as §1

Measured: odorant receptor agonist call;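 also: active if original authors judged signal statistically different from baseline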

CC12C=CCC1C1CCC3CC(=O)CCC3(C)C1CC2 (stereo not drawn)
active: OR4CC
not listed: OR4C6 (Homo sapiens)
inactive: all other assays above

CC(C)CCC(=O)O
inactive: OR4C3 (Homo sapiens) | OR4C3 | OR4C5 | OR4C6 (Homo sapiens) | OR4CC

CC1=CCC(C(C)(C)O)CC1 (stereo not drawn)
inactive: OR4C3 (Homo sapiens) | OR4C3 | OR4C5 | OR4C6 (Homo sapiens) | OR4CC

CC(=O)C(C)=O
inactive: OR4C3 (Homo sapiens) | OR4C3 | OR4C5 | OR4C6 (Homo sapiens) | OR4CC

COC(=O)c1ccccc1O
inactive: OR4C3 (Homo sapiens) | OR4C3 | OR4C5 | OR4C6 (Homo sapiens) | OR4CC

CCCCCCCCCCC=O
inactive: OR4C3 (Homo sapiens) | OR4C3 | OR4C5 | OR4C6 (Homo sapiens) | OR4CC

CCC1(O)C2(C)CCC(C2)C1(C)C (stereo not drawn)
inactive: OR4C3 (Homo sapiens) | OR4C3 | OR4C5 | OR4C6 (Homo sapiens) | OR4CC

CCCCCCCOC(C)=O
inactive: OR4C3 (Homo sapiens) | OR4C3 | OR4C5 | OR4C6 (Homo sapiens) | OR4CC

CCCCCCCCOC(C)=O
inactive: OR4C3 (Homo sapiens) | OR4C3 | OR4C5 | OR4C6 (Homo sapiens) | OR4CC

O=CCc1ccccc1
inactive: OR4C3 (Homo sapiens) | OR4C3 | OR4C5 | OR4C6 (Homo sapiens) | OR4CC

CCCCCCCCCC=O
inactive: OR4C3 (Homo sapiens) | OR4C3 | OR4C5 | OR4C6 (Homo sapiens) | OR4CC

COc1cc(C=O)ccc1O
inactive: OR4C3 (Homo sapiens) | OR4C3 | OR4C5 | OR4C6 (Homo sapiens) | OR4CC

O=C1CCCCCCCCCCCC(=O)OCCO1
inactive: OR4C3 (Homo sapiens) | OR4C3 | OR4C5 | OR4C6 (Homo sapiens) | OR4CC

CC(=O)OC1CC2CCC1(C)C2(C)C (stereo not drawn)
inactive: OR4C3 (Homo sapiens) | OR4C3 | OR4C5 | OR4C6 (Homo sapiens) | OR4CC

c1cnccn1
inactive: OR4C3 (Homo sapiens) | OR4C3 | OR4C5 | OR4C6 (Homo sapiens) | OR4CC

CCCCCCOC(=O)CCC
inactive: OR4C3 (Homo sapiens) | OR4C3 | OR4C5 | OR4C6 (Homo sapiens) | OR4CC

C=CCc1ccc(OC)c(OC)c1
inactive: OR4C3 (Homo sapiens) | OR4C3 | OR4C5 | OR4C6 (Homo sapiens) | OR4CC

CCC=CCCO
inactive: OR4C3 (Homo sapiens) | OR4C3 | OR4C5 | OR4C6 (Homo sapiens) | OR4CC

CC(C)=CCCC(C)=CC=O
inactive: OR4C3 (Homo sapiens) | OR4C3 | OR4C5 | OR4C6 (Homo sapiens) | OR4CC

C=CC(C)(O)CCC=C(C)C (stereo not drawn)
inactive: OR4C3 (Homo sapiens) | OR4C3 | OR4C5 | OR4C6 (Homo sapiens) | OR4CC

CC(=O)OCC=C(C)CCC=C(C)C
inactive: OR4C3 (Homo sapiens) | OR4C3 | OR4C5 | OR4C6 (Homo sapiens)
active: OR4CC

C=CCc1ccc(OC(C)=O)c(OC)c1
inactive: OR4C3 (Homo sapiens) | OR4C3 | OR4C5 | OR4C6 (Homo sapiens)
active: OR4CC

CCCCO
inactive: OR4C3 (Homo sapiens) | OR4C3 | OR4C5 | OR4C6 (Homo sapiens) | OR4CC

c1ccc(Oc2ccccc2)cc1
inactive: OR4C3 (Homo sapiens) | OR4C3 | OR4C5 | OR4C6 (Homo sapiens) | OR4CC

O=C1CCCCCCCCCCCCCCO1
inactive: OR4C3 (Homo sapiens) | OR4C3 | OR4C5 | OR4C6 (Homo sapiens) | OR4CC

CC(C)C(=O)O
inactive: OR4C3 (Homo sapiens) | OR4C3 | OR4C5 | OR4C6 (Homo sapiens) | OR4CC

CC=Cc1ccc(O)c(OC)c1
inactive: OR4C3 (Homo sapiens) | OR4C3 | OR4C5
active: OR4C6 (Homo sapiens) | OR4CC

CCCCCOC(C)=O
inactive: OR4C3 (Homo sapiens) | OR4C3 | OR4C5 | OR4CC

CCCC(=O)O
inactive: OR4C3 (Homo sapiens) | OR4C3 | OR4C5 | OR4C6 (Homo sapiens) | OR4CC

CCCCCC(=O)O
inactive: OR4C3 (Homo sapiens) | OR4C3 | OR4C5 | OR4C6 (Homo sapiens) | OR4CC

CCCCCCCC=O
inactive: OR4C3 (Homo sapiens) | OR4C3 | OR4C5 | OR4C6 (Homo sapiens) | OR4CC

CC(=O)OC(C)(C)C1CC=C(C)CC1 (stereo not drawn)
inactive: OR4C3 (Homo sapiens) | OR4C3 | OR4C5 | OR4C6 (Homo sapiens) | OR4CC

O=C1CCCCC1
inactive: OR4C3 (Homo sapiens) | OR4C3 | OR4C5 | OR4CC

CC(C)C=O
inactive: OR4C3 (Homo sapiens) | OR4C3 | OR4C5 | OR4C6 (Homo sapiens) | OR4CC

CC(C)(C)c1ccc(CCC=O)cc1
inactive: OR4C3 (Homo sapiens) | OR4C3 | OR4C5 | OR4C6 (Homo sapiens) | OR4CC

CC1COCc2cc3c(cc21)C(C)(C)C(C)C3(C)C (stereo not drawn)
active: OR4C3 (Homo sapiens) | OR4C3 | OR4C5 | OR4C6 (Homo sapiens) | OR4CC

COc1ccccc1O
inactive: OR4C3 (Homo sapiens) | OR4C3 | OR4C5 | OR4C6 (Homo sapiens) | OR4CC

CC1CCC(C(C)C)C(O)C1 (stereo not drawn)
inactive: OR4C3 | OR4C5 | OR4C6 (Homo sapiens) | OR4CC
active: OR4C3 (Homo sapiens)

COC(=O)c1ccccc1
inactive: OR4C3 (Homo sapiens) | OR4C3 | OR4C5 | OR4CC

CC12CCC(C1)C(C)(C)C2=O (stereo not drawn)
inactive: OR4C3 (Homo sapiens) | OR4C3 | OR4C5 | OR4C6 (Homo sapiens) | OR4CC

CC12CCC(CC1)C(C)(C)O2
inactive: OR4C3 (Homo sapiens) | OR4C3 | OR4C5 | OR4C6 (Homo sapiens) | OR4CC

CC(C)CC(=O)O
active: OR4CC
inactive: OR4C3 (Homo sapiens) | OR4C3 | OR4C5 | OR4C6 (Homo sapiens)

COc1cc(C)ccc1O
inactive: OR4C3 (Homo sapiens) | OR4C3 | OR4C5 | OR4C6 (Homo sapiens) | OR4CC

CCCCCC(C)=O
active: OR4C3
inactive: OR4C3 (Homo sapiens) | OR4C5 | OR4CC

CCCCCCCC=CC=O
inactive: OR4C3 (Homo sapiens) | OR4C3 | OR4C5 | OR4C6 (Homo sapiens) | OR4CC

CC1=NC(C)SC1C (stereo not drawn)
inactive: OR4C3 (Homo sapiens) | OR4C3 | OR4C5 | OR4CC

CC12C=CCC1C1CCC3=CC(=O)CCC3(C)C1CC2 (stereo not drawn)
inactive: OR4C3 (Homo sapiens) | OR4C3 | OR4C5 | OR4C6 (Homo sapiens) | OR4CC

CC(=O)c1ccccc1
inactive: OR4C3 (Homo sapiens) | OR4C3 | OR4C5 | OR4CC

C=CCSCC=C
inactive: OR4C3 (Homo sapiens) | OR4C3 | OR4C5 | OR4C6 (Homo sapiens) | OR4CC
